The list shows a part of the results. These are raw signals, not scaled to a control.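 In the initial screen, polymyxin B was used at a concentration that permeabilizes Salmonella's outer membrane but not its inner membrane. Maximum growth was set by DMSO wells with or without polymyxin B. Since plates varied, data were ranked per plate, and compounds giving the lowest OD600 advanced as hits.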
Tested on: Salmonella enterica serovar Typhimurium SL1344
Assay: bacterial growth OD600 after 18 h with compound and polymyxin B; higher = more bacterial growth (less inhibition)
Conditions: 50 µM, Mueller-Hinton broth

SMILES | bacterial growth OD600 (polymyxin B 1 µg/mL) | bacterial growth OD600 (polymyxin B 0.75 µg/mL)
CCN1CCCC1CNC(=O)CCC1CCN(CCCC(F)(F)F)CC1 (configuration not stated) | 1.17 | 
CCOC(=O)C1(Cc2cccc(OC)c2)CCN(Cc2ccc(COC)o2)CC1 | 1.07 | 
COc1ccc(F)c(CNC2COc3c(cccc3OC)C2)c1 (configuration not stated) | 0.892 | 
COc1ccccc1C(=O)Nc1cccc(N2CCC(NCc3ccccc3C)CC2)c1 |  | 0.794
COc1ccc(-c2nn(-c3ccccc3C)cc2CN(C)Cc2ccon2)cc1F | 0.01 | 
CC(=O)N1CCC[C@H]1C(=O)N1CCc2onc(-c3cccc4ccccc34)c2C1 | 0.905 | 
O=C(CCC(F)(F)F)N1CCC2(CCCN(Cc3ccccc3F)C2=O)C1 (configuration not stated) | 1.01 | 
O=C1N(Cc2ccccc2F)CCCC12CCN(C1CCCC1)C2 (configuration not stated) | 0.866 | 
CCCn1c(C)c(CC(=O)N(C)Cc2nnc(C)o2)c2c1CC(C)(C)CC2=O | 0.842 | 
O=C(c1ccncc1)N1CCc2onc(C(c3ccccc3)c3ccccc3)c2C1 |  | 0.721
CCOC(=O)N1CCC(NC(=O)c2oc3c(F)cccc3c2C)CC1 | 1.02 | 
O=C(CC1CCCC1)N1CCC(C2(c3ccccn3)NC(=O)N(CCc3cccs3)C2=O)CC1 (configuration not stated) |  | 0.771
CC(C)c1nc(CNC(=O)c2ccc(N3CCSCC3)nc2)no1 | 0.871 | 
CC(C)CCNC(=O)c1cn(C2CCCC2)cc(C(=O)NCC(C)(C)CN(C)C)c1=O |  | 0.808
CC1(C)Cc2nc(N3CCOCC3)ncc2C(NC(=O)COc2ccccc2)C1 (configuration not stated) |  | 0.952
COc1ccc(CC2=NOC(CNC(=O)c3c(F)cccc3F)C2)cc1 (configuration not stated) |  | 0.807

Some of the entries above in a different format:
CCN1CCCC1CNC(=O)CCC1CCN(CCCC(F)(F)F)CC1 (configuration not stated)
  bacterial growth OD600 (polymyxin B 1 µg/mL): 1.17
CCCn1c(C)c(CC(=O)N(C)Cc2nnc(C)o2)c2c1CC(C)(C)CC2=O
  bacterial growth OD600 (polymyxin B 1 µg/mL): 0.842
CCOC(=O)N1CCC(NC(=O)c2oc3c(F)cccc3c2C)CC1
  bacterial growth OD600 (polymyxin B 1 µg/mL): 1.02

Further entries.

SMILES | bacterial growth OD600 (polymyxin B 1 µg/mL) | bacterial growth OD600 (polymyxin B 0.75 µg/mL)
Cc1ncsc1C(=O)N1CCc2onc(-c3cccc4ccccc34)c2C1 |  | 0.6
Cc1cnc(N2C[C@H]3OC(=O)N(C4CCCC4)[C@H]3C2)nc1N(C)C |  | 0.831
COc1ccc(NC2CCCN(C(=O)/C=C/c3ccccn3)C2)cc1OC (configuration not stated) | 0.806 | 
COCc1ccc(C(=O)N2CCOC(Cc3cccc(OC)c3)C2)o1 (configuration not stated) |  | 0.96
Cc1ccccc1CCC1CCCN(C(=O)C2CCC2)C1 (configuration not stated) |  | 0.225
Cc1nc2ccccc2n1Cc1cc(C(=O)N(C)C)n[nH]1 | 1.04 | 
OC(Cc1ccccc1)c1ccc2c(c1)CN(Cc1ccc3c(c1)OCO3)CCO2 (configuration not stated) |  | 0.121
O=C1N(CC2CCC2)CCCC1(O)CNC12CC3CC(CC(C3)C1)C2 (configuration not stated) | 0.749 | 
CN(C)c1ccc(CN2CCOc3ccc(C(C)(O)COc4ccccc4)cc3C2)cc1 (configuration not stated) |  | 0.048
CN(CCc1cn[nH]c1)c1ccc(-c2nc(-c3ccccc3F)no2)cn1 | 0.866 | 
CCC1CCCCN1c1ccc(C(=O)N2CCCN(c3ncccn3)CC2)cn1 (configuration not stated) |  | 0.781
O=C(NC1CC(=O)N(CCCc2ccccc2)C1)c1ccncc1 (configuration not stated) | 0.89 | 
COC(=O)C1CCCCN1C(=O)c1c(OC)cc(=O)n2c1CCN(Cc1ccc(F)cc1F)CC2 (configuration not stated) |  | 0.798
COCCNC(=O)c1ccc(OC2CCN(CC3CC=CCC3)CC2)c(Cl)c1 (configuration not stated) | 0.971 | 
COc1ccc(C(=O)C2CCCN(Cc3c(F)ccc(F)c3F)C2)c(OC)c1 (configuration not stated) | 0.801 | 
CCOC(=O)C1CCCN(Cc2nc(Cc3cccc(F)c3)no2)C1 (configuration not stated) | 0.791 | 

— the supplement of paper PMC12889115
